Measurements: the supplement of paper PMC10849652
The list shows a part of the results.

Sequences of proteins named here, by UniProt entry; tags and fusion partners are left off. A change or cut given only in a name is not applied to a line headed by its entry.
UniProt Q13625: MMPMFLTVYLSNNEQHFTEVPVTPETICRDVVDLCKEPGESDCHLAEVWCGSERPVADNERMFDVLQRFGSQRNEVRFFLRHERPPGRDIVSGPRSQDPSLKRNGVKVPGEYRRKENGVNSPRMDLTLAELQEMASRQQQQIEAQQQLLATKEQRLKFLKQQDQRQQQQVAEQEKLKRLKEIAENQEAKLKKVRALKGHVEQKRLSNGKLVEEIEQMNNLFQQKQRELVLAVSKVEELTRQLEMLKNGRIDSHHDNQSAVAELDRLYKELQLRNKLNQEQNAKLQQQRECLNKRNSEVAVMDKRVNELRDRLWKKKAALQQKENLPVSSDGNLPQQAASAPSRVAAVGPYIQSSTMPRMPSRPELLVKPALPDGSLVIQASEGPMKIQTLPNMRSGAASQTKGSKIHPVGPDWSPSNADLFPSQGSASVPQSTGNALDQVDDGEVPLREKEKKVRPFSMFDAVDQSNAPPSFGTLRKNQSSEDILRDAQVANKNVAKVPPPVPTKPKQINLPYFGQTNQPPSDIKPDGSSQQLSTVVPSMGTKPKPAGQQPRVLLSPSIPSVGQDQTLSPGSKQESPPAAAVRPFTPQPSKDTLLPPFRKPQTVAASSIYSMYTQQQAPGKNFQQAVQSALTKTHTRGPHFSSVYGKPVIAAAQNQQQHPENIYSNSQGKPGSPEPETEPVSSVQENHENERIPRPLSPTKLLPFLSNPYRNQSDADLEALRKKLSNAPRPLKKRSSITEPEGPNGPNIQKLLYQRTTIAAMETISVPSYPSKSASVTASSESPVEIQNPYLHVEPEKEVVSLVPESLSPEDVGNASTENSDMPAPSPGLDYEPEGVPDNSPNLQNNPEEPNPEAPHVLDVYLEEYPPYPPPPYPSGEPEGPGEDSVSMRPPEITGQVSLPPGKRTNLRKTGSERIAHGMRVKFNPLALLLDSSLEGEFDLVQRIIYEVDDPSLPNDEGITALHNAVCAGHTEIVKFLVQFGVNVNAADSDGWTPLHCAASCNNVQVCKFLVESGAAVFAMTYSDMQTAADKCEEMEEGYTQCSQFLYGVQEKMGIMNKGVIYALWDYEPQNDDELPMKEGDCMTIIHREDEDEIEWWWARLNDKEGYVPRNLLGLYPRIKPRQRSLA
UniProt P49815: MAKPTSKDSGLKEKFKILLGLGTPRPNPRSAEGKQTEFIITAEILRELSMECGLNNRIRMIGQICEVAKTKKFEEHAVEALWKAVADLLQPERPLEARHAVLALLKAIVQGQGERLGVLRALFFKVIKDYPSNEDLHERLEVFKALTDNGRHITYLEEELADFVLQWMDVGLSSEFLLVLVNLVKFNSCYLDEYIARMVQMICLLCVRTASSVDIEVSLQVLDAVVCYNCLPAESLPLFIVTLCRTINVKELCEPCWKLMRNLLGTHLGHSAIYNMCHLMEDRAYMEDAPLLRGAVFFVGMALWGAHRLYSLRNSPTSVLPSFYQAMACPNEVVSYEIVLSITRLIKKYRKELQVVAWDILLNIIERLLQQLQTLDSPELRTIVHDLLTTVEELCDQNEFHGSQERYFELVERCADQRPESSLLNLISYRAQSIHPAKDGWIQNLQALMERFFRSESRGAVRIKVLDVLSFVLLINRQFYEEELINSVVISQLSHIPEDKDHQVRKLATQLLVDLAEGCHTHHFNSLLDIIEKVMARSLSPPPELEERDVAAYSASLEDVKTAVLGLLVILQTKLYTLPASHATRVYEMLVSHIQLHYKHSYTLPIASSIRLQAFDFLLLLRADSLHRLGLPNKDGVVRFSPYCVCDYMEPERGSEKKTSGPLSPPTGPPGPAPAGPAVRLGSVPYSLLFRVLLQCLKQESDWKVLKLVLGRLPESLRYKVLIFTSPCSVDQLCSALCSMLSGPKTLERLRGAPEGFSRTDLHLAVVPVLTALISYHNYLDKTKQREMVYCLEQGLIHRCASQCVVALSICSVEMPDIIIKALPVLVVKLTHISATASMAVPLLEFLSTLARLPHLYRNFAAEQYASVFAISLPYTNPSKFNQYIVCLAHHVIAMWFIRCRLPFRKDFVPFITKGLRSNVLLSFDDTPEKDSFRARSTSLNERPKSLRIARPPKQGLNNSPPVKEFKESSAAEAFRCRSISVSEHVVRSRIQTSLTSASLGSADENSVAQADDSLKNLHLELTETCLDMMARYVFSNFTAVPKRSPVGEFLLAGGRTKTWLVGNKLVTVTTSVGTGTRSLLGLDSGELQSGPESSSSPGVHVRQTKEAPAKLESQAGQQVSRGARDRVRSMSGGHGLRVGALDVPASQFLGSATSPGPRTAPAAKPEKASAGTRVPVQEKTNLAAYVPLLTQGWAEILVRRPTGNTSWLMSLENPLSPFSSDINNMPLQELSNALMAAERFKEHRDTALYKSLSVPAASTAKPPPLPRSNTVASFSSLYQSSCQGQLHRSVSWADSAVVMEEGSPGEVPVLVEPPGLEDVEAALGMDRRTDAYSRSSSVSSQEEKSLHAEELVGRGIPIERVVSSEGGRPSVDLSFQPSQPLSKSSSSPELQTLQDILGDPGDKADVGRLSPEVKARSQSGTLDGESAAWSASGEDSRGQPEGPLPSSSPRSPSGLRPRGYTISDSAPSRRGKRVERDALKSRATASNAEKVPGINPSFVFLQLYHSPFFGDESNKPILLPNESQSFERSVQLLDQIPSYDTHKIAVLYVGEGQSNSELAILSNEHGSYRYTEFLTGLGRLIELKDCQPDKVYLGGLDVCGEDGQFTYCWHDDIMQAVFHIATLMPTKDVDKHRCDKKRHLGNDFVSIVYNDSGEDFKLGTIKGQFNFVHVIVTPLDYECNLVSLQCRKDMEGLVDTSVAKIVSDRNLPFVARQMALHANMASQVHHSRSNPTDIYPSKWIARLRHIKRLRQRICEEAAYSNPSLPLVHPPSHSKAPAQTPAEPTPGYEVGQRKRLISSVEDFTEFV
UniProt Q8WV44: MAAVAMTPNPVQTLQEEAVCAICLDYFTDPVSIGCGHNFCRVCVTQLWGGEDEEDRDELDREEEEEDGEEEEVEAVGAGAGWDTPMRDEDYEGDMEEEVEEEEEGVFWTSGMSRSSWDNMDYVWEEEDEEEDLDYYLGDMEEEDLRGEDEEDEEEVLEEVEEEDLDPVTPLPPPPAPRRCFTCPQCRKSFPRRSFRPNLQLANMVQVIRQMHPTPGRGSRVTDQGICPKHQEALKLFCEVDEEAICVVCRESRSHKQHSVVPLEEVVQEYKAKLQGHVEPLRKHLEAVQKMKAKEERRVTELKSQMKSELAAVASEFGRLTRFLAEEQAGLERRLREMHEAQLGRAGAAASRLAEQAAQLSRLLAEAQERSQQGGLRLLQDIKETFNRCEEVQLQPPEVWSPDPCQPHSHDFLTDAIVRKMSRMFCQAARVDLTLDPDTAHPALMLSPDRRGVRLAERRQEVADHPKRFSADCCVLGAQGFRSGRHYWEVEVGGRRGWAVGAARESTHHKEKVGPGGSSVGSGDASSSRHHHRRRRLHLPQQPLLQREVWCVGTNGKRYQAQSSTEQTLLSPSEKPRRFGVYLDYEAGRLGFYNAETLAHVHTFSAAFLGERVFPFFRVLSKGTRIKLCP
UniProt Q9H3H1: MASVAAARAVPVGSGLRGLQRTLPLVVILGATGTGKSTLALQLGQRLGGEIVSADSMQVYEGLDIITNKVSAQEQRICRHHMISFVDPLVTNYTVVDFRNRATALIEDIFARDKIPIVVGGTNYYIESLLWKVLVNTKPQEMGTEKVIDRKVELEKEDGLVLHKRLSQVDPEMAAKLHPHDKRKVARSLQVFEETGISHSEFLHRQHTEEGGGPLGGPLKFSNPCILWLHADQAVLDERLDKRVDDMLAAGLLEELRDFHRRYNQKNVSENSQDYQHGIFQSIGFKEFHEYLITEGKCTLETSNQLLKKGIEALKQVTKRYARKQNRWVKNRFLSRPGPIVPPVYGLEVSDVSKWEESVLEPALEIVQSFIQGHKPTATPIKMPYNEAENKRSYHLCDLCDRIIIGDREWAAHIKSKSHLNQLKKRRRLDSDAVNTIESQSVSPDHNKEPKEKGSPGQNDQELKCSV
UniProt Q9BW30: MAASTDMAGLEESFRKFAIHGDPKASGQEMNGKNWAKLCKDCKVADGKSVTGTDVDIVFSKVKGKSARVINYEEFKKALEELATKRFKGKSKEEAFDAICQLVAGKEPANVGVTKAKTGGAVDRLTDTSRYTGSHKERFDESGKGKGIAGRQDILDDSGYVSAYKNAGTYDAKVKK
UniProt Q92574: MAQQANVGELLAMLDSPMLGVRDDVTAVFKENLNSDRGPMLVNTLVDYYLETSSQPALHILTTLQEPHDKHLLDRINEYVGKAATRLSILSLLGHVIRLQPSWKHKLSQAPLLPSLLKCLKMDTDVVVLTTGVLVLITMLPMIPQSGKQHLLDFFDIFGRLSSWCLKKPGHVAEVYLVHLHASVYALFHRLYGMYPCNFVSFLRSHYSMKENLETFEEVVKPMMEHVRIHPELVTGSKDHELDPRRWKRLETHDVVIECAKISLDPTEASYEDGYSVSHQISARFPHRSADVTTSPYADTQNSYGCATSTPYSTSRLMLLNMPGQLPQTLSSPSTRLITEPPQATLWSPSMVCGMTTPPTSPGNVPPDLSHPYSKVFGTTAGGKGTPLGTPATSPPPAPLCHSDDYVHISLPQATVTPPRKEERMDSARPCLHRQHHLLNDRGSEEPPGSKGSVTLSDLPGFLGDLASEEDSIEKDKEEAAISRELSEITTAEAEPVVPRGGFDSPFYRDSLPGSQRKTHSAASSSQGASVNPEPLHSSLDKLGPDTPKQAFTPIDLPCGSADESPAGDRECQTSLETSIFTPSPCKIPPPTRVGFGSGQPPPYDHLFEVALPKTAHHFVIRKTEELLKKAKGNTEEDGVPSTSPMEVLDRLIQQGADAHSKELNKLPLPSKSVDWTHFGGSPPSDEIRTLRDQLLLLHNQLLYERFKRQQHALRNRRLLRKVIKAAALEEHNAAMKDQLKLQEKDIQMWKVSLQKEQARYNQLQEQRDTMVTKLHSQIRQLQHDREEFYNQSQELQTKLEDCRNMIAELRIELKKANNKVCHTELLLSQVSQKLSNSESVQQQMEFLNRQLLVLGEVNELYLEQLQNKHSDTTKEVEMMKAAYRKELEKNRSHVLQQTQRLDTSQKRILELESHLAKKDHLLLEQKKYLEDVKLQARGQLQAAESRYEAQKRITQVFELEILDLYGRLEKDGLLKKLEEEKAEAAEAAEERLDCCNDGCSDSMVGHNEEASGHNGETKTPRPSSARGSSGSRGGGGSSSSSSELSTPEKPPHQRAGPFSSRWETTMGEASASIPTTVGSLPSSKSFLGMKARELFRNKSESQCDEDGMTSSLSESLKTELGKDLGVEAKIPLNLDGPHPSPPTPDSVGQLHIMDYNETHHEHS
UniProt Q629K1: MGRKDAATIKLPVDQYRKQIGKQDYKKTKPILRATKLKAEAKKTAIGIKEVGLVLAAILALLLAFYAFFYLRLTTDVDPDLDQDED
UniProt Q12815: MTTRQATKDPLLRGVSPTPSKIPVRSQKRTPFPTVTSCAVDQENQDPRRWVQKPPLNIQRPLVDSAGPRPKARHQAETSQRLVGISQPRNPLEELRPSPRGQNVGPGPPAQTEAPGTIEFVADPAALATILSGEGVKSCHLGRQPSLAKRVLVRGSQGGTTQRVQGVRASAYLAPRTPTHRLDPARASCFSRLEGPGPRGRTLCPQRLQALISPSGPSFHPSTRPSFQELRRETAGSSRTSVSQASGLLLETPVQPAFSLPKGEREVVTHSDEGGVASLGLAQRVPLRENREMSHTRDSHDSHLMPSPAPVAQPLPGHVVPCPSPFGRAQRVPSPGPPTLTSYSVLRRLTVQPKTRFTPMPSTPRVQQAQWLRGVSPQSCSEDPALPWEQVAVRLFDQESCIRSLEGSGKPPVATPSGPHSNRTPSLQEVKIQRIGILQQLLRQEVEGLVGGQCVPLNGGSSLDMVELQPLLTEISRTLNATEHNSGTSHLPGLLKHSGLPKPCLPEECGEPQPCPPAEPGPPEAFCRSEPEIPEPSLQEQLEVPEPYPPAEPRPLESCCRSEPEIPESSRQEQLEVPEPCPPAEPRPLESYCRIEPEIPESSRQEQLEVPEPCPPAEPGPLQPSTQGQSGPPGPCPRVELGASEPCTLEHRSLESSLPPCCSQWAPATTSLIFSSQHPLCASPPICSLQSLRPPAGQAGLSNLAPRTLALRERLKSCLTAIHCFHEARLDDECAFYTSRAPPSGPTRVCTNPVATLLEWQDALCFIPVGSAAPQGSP
UniProt Q15628: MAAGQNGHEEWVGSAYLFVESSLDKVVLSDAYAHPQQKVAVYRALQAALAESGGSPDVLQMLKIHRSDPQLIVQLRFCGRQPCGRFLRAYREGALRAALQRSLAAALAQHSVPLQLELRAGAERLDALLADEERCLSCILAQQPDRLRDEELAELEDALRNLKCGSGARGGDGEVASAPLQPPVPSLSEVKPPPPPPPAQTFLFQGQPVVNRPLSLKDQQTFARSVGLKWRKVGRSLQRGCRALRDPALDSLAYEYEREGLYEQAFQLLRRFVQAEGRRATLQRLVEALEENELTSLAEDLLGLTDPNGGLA

Tests used:
Assay in all cases: log2 fold change, soluble protein after heating vs DMSO (PISA); higher = thermal stabilisation; K562 cells, 10 uM, 30 min; active = over 0.2 and 3.5 SD of the protein, either way, in both replicates (recomputed)
[1] = compound: NC(=O)Nc1cc(-c2cccc(F)c2)sc1C(=O)N[C@H]1CCCNC1
Method in brief: (§1)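 Aliquots of K562 cells (2×10^6 cells/mL) treated with 10 μM compound for 30 min were heated for 3 min over 48°C-58°C. After pooling and extraction in PBS with 0.5% NP-40 at 4°C, soluble protein from a 21,000xg, 90 min spin was quantified by TMTpro 16plex LC-MS/MS with channel sums equalised. Thermal stability is expressed against control samples, from duplicates, as a log2 fold change.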

[2] = compound: NC(=O)c1cnc(N[C@@H]2CCCC[C@@H]2N)nc1Nc1cccc(-n2nccn2)c1
Method in brief: as §1

[3] = compound: NCC(=O)Nc1ccc(-n2nc(C(F)(F)F)cc2-c2ccc3c(ccc4ccccc43)c2)cc1
Method in brief: as §1

[4] = compound: Nc1ccccc1NC(=O)c1ccc(CNC(=O)OCc2cccnc2)cc1 [entinostat]
Method in brief: as §1

[5] = compound: O=C(CCCCCCC(=O)Nc1ccccc1)NO [vorinostat]
Method in brief: as §1

[6] = compound: O=C1NC(=O)C(c2cnc3ccccn23)=C1c1cn2c3c(cc(F)cc13)CN(C(=O)N1CCCCC1)CC2
Method in brief: as §1

[7] = compound: NC1(c2ccc(-c3nc4ccn5c(=O)[nH]nc5c4cc3-c3ccccc3)cc2)CCC1
Method in brief: as §1

[8] = compound: O=C(CCCCCCNC(=O)c1cnc(N(c2ccccc2)c2ccccc2Cl)nc1)NO [citarinostat]
Method in brief: as §1

[9] = compound: O=C(O)c1ccc2c(c1)nc(Nc1cccc(Cl)c1)c1ccncc12 [silmitasertib]
Method in brief: as §1

[10] = compound: c1cc(OCCN2CCCCC2)cc(-c2n[nH]c3ccc(-c4nnc[nH]4)cc23)c1
Method in brief: as §1

Measured: log2 fold change

TP53BP2 isoform 3 (UniProt Q13625)
inactive: [1] 0.035 | [2] -0.055 | [3] -0.024 | [4] 0.061 | [5] -0.015 | [6] -0.053

TNRC6B (UniProt Q9UPQ9)
inactive: [1] -0.402 | [2] 0.026 | [4] 0.123 | [5] 0.121 | [6] 0.022

TOP1 (UniProt P11387)
inactive: [1] 0.158 | [2] -0.029 | [7] 0.154 | [3] 0.185 | [4] 0.049 | [5] 0 | [8] -0.054 | [9] 0.057 | [6] 0.085 | [10] -0.087

TSC2 (UniProt P49815)
active: [10] -0.594
inactive: [1] -0.038 | [2] -0.074 | [7] 0.214 | [4] -0.061 | [5] 0.125 | [8] 0.273 | [9] 0.107 | [6] 0.105

TOR4A (UniProt Q9NXH8)
inactive: [1] 0.1 | [2] 0.074 | [7] -0.006 | [3] 0.068 | [4] -0.01 | [5] -0.068 | [8] 0.039 | [9] -0.009 | [6] 0.075 | [10] -0.053

TPCN1 isoform 3 (UniProt Q9ULQ1)
inactive: [1] 0.059 | [2] -0.016 | [7] -0.261 | [3] 0.066 | [4] -0.382 | [5] 0.265 | [9] 0.054 | [6] -0.031

TSC22D1 (UniProt Q15714)
inactive: [1] 0.017 | [2] -0.046 | [7] -0.075 | [3] -0.085 | [4] 0.002 | [5] 0.013 | [8] 0.074 | [9] 0.006 | [6] 0.01 | [10] -0.036

TRIM38 (UniProt O00635)
inactive: [1] -0.362 | [2] -0.059 | [7] -0.04 | [3] -0.088 | [4] 0.114 | [5] -0.061 | [9] -0.051 | [6] -0.101

TRUB2 (UniProt O95900)
inactive: [1] -0.255 | [4] -0.103 | [5] 0.053 | [6] -0.282

TRIM41 (UniProt Q8WV44)
inactive: [3] 0.143

TRMT2B (UniProt Q96GJ1)
inactive: [2] -0.282 | [7] -0.146 | [3] 0.007 | [5] 0.01 | [8] 0.068 | [9] 0.084 | [10] -0.05

TNIP1 (UniProt Q15025)
inactive: [1] -0.006 | [7] 0.251 | [4] 0.022 | [8] 0.067 | [9] -0.343 | [6] 0.052 | [10] 0.201

TRAF3IP1 (UniProt Q8TDR0)
inactive: [2] -0.07 | [3] -0.046

TPK1 (UniProt Q9H3S4)
inactive: [1] -0.009 | [7] 0.19 | [3] 0.067 | [4] 0.016 | [5] 0.015 | [9] 0.091 | [6] -0.017

TRIT1 (UniProt Q9H3H1)
inactive: [8] -0.214 | [10] 0.097

TPPP3 (UniProt Q9BW30)
inactive: [1] 0.094 | [4] -0.144 | [6] -0.208

TRMT5 (UniProt Q32P41)
inactive: [2] -0.13 | [3] -0.001 | [5] 0.019 | [8] 0.106 | [6] 0.03 | [10] -0.195

TRIM21 (UniProt P19474)
inactive: [2] -0.096 | [7] -0.316 | [9] -0.026

Taken from the listing (two entries):
TPK1 (UniProt Q9H3S4)
inactive: [1] -0.009 | [7] 0.19 | [3] 0.067 | [4] 0.016 | [5] 0.015 | [9] 0.091 | [6] -0.017

TRIT1 (UniProt Q9H3H1)
inactive: [8] -0.214 | [10] 0.097

Next records

TOM1 (UniProt O60784)
inactive: [1] 0.044 | [7] -0.176 | [4] 0.062 | [5] 0.048 | [9] 0.017 | [6] -0.077

TRPM4 (UniProt Q8TD43)
inactive: [1] -0.081 | [4] 0.014 | [6] 0.079

TSC1 (UniProt Q92574)
inactive: [2] -0.04 | [3] -0.12 | [8] 0.212 | [10] 0.039

TNRC6A (UniProt Q8NDV7)
inactive: [7] 0.137 | [9] -0.007

TRIP12 isoform 3 (UniProt Q14669)
inactive: [7] 0.022 | [3] -0.14 | [5] 0.158 | [8] -0.076 | [9] 0.044 | [6] 0.076 | [10] 0.077

TRIM65 (UniProt Q6PJ69)
inactive: [3] 0.032 | [8] 0.024 | [10] -0.068

TOR1AIP2 (UniProt Q9H496)
inactive: [7] 0.048 | [8] 0.079 | [9] 0.02 | [6] -0.319 | [10] -0.067

TRIM33 isoform 2 (UniProt Q9UPN9)
inactive: [1] -0.046 | [7] -0.048 | [4] 0.018 | [9] -0.149 | [6] 0.013

TREML2 (UniProt Q5T2D2)
inactive: [1] -0.238 | [7] -0.099 | [4] -0.168 | [9] -0.034

TRAF3 (UniProt Q13114)
inactive: [3] 0.026

TRIQK (UniProt Q629K1)
inactive: [1] 0.013 | [7] -0.044 | [4] -0.083 | [9] 0 | [6] -0.235

TNXB isoform 4 (UniProt P22105)
inactive: [7] -0.001 | [8] -0.056 | [9] 0.12 | [10] -0.112

TRIM27 (UniProt P14373)
inactive: [2] -0.287 | [5] 0.066

TROAP (UniProt Q12815)
inactive: [5] 0.05 | [6] 0.021

TNKS (UniProt O95271)
inactive: [2] -0.205

TRADD (UniProt Q15628)
inactive: [2] -0.073 | [7] -0.094 | [3] -0.049 | [9] -0.034 | [6] 0.025

TRIM29 (UniProt Q14134)
inactive: [7] -0.181 | [8] -0.113 | [9] 0.09 | [10] -0.031

TRAPPC6A isoform 2 (UniProt O75865)
inactive: [7] -0.181 | [8] 0.041 | [9] -0.165 | [10] -0.03

TRPM7 (UniProt Q96QT4)
inactive: [2] -0.145 | [7] -0.015 | [3] 0.051 | [5] 0.073 | [8] 0.061 | [9] 0.073 | [6] 0.095 | [10] -0.187

TRAPPC2 isoform 3 (UniProt P0DI81)
inactive: [2] -0.253 | [7] -0.016 | [3] -0.123 | [5] -0.017 | [9] 0.032

TPRG1L (UniProt Q5T0D9)
inactive: [1] 0.087 | [7] -0.065 | [4] 0.026 | [8] 0.191 | [9] 0.141 | [6] 0 | [10] 0.069

TPD52L2 isoform 3 (UniProt O43399)
inactive: [2] -0.146 | [7] 0.273 | [3] 0.009 | [5] 0.077 | [9] -0.281 | [6] -0.097

TNIK isoform 3 (UniProt Q9UKE5)
inactive: [2] 0.006 | [7] 0.058 | [3] -0.006 | [5] 0.055 | [8] 0.029 | [9] -0.091 | [10] -0.03
